Measured values reported in patent publication US20200190592A1, “PME-1 AS A BIOMARKER TO PREDICT AND DIAGNOSE AN INCREASED RISK OF ENDOMETRIAL CANCER AND GENE SILENCING OF PME-1 TO INHIBIT EPITHELIAL TO MESENCHYMAL TRANSITION” (Medical Diagnostic Laboratories, L.L.C., priority 2018, published 2020).
At least one compound was matched to its structure with a doubt left.

Tested on: phospho-Akt
Experiment: Western analysis of Akt phosphorylation in RL95-2 cells
Format: cell-based, human
Conditions: 50 μM, 1-2 hours at 37° C.
Description: We observed a similar trend for the Akt signaling pathway. There was an increase in phosphorylation of Akt on threonine 308 (T308) when PME-1 was over-expressed compared to control. There was a decrease in phosphorylation of Akt when PME-1 was knocked down (FIG. 18B). PME-1 over-expression specifically increases the phosphorylation of Akt on T308, but not serine 473 (S473). Importantly, when cells were incubated with upstream inhibitors of Akt phosphorylation (LY294002), there was a decrease in the phospho-forms (FIGS. 18A and 18B), as expected.
15 μg of protein was used for western analysis. PME-1 antibody (Santa Cruz) and COXIV (Cell Signaling Technologies) were used for detection of proteins and the blots were developed using chemiluminescence (Pierce ECL Western Blotting Substrate—Thermo Scientific) on the GE ImageQuant LAS 4000. For analysis of Akt, ERK, and β-catenin signaling in tissue culture, western analyses were completed as follows. RL95-2 cells stably infected with lentivirus expressing constructs were selected with puromycin (Invivogen). The cells were incubated with either 50 μM Akt inhibitor (LY 294002, Cell Signaling Technologies) or 40 μM ERK inhibitor (V0126, Cell Signaling Technologies) for 1-2 hours at 37° C. 1.5× Laemelli buffer (0.5 M Tris pH6.8, […], 10% sodium dodecyl sulfate, 100 mM EDTA) was used to prepare cell lysates. […]

O=c1cc(N2CCOCC2)oc2c(-c3ccccc3)cccc12 [LY294002, reference compound]
phospho-forms (Akt phosphorylation): decrease
